From PMC3226675

Tests used:
GST-Upf1 (1-417) (human) = biological target: T1, GST-Upf1 (1-417) (human) (UniProt Q92900); test: pull-down; in vivo binding: Stau2 and Upf1 expression vectors co-transfected in 293F cells; lysate with 20 ug/ml RNase A, 20 mM Tris-HCl pH 7.5, 150 mM NaCl, 1 mM DTT, 0.5% Tween 20; GST-Upf1 or its deletion mutants pulled down with glutathione Sepharose, 2 h at 4 C; Western blotting
T1 sequence: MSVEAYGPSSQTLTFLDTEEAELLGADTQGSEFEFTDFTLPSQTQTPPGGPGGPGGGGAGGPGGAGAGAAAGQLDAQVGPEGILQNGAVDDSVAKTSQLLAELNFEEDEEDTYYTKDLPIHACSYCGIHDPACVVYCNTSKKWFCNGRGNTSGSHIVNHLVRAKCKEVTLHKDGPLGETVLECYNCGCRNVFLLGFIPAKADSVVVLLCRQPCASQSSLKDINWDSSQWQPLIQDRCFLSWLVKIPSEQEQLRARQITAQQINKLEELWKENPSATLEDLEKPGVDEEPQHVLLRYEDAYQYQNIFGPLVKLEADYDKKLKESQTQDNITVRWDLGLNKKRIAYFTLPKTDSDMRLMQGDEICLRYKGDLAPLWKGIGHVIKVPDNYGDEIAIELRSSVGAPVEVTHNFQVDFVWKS

[1] = biological target: T2, GST-Upf1 (417-1118) (human) (UniProt Q92900); test: as above
T2 sequence: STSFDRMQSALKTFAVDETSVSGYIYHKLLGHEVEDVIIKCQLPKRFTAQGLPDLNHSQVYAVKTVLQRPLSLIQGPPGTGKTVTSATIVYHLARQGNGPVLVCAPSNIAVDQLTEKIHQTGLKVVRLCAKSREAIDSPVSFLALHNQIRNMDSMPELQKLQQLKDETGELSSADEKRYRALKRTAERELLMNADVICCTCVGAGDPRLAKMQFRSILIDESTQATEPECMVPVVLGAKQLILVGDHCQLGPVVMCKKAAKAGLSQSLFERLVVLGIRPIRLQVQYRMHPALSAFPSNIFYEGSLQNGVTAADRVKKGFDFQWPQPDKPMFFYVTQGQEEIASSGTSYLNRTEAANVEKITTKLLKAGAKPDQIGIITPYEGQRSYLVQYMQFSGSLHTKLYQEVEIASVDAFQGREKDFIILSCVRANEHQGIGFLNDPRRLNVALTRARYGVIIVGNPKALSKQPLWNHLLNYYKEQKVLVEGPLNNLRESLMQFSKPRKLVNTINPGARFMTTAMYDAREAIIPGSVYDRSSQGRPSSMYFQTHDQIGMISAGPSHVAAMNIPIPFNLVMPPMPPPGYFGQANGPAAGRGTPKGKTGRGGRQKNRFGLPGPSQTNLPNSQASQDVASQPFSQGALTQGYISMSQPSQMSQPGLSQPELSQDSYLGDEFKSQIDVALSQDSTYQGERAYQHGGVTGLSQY

[2] = biological target: GST-fused Stau2 (rat Staufen2, isoform Stau2^59) (rat); test: pull-down; in vitro binding: recombinant FLAG-Upf1 (5 ug) mixed with recombinant GST-Stau2 (1 ug) or GST (1 ug) in 20 mM Tris-HCl pH 7.5, 150 mM NaCl, 1 mM DTT, 0.05% Tween 20, 4 C for 2 hr; precipitated with glutathione-Sepharose 4B; SDS-PAGE and CBB staining; both purified

With FLAG-Stau2 (rat) the binding (GST-Upf1 (1-417) (human)) was “binds” and the binding [1] was “no binding”.

B1: Recombinant FLAG-Upf1 protein (protein, UniProt Q92900-2 1-1118)
chain: MSVEAYGPSSQTLTFLDTEEAELLGADTQGSEFEFTDFTLPSQTQTPPGGPGGPGGGGAGGPGGAGAGAAAGQLDAQVGPEGILQNGAVDDSVAKTSQLLAELNFEEDEEDTYYTKDLPIHACSYCGIHDPACVVYCNTSKKWFCNGRGNTSGSHIVNHLVRAKCKEVTLHKDGPLGETVLECYNCGCRNVFLLGFIPAKADSVVVLLCRQPCASQSSLKDINWDSSQWQPLIQDRCFLSWLVKIPSEQEQLRARQITAQQINKLEELWKENPSATLEDLEKPGVDEEPQHVLLRYEDAYQYQNIFGPLVKLEADYDKKLKESQTQDNITVRWDLGLNKKRIAYFTLPKTDSDMRLMQGDEICLRYKGDLAPLWKGIGHVIKVPDNYGDEIAIELRSSVGAPVEVTHNFQVDFVWKSTSFDRMQSALKTFAVDETSVSGYIYHKLLGHEVEDVIIKCQLPKRFTAQGLPDLNHSQVYAVKTVLQRPLSLIQGPPGTGKTVTSATIVYHLARQGNGPVLVCAPSNIAVDQLTEKIHQTGLKVVRLCAKSREAIDSPVSFLALHNQIRNMDSMPELQKLQQLKDETGELSSADEKRYRALKRTAERELLMNADVICCTCVGAGDPRLAKMQFRSILIDESTQATEPECMVPVVLGAKQLILVGDHCQLGPVVMCKKAAKAGLSQSLFERLVVLGIRPIRLQVQYRMHPALSAFPSNIFYEGSLQNGVTAADRVKKGFDFQWPQPDKPMFFYVTQGQEEIASSGTSYLNRTEAANVEKITTKLLKAGAKPDQIGIITPYEGQRSYLVQYMQFSGSLHTKLYQEVEIASVDAFQGREKDFIILSCVRANEHQGIGFLNDPRRLNVALTRARYGVIIVGNPKALSKQPLWNHLLNYYKEQKVLVEGPLNNLRESLMQFSKPRKLVNTINPGARFMTTAMYDAREAIIPGSVYDRSSQGRPSSMYFQTHDQIGMISAGPSHVAAMNIPIPFNLVMPPMPPPGYFGQANGPAAGRGTPKGKTGRGGRQKNRFGLPGPSQTNLPNSQASQDVASQPFSQGALTQGYISMSQPSQMSQPGLSQPELSQDSYLGDEFKSQIDVALSQDSTYQGERAYQHGGVTGLSQY
For B1, the binding [2] was “binds”.

No constants are given. Whether binding was seen depends on the method and setting. For part of these data: Binding calls can cover weak binding; strength is not graded here. Tags and fused reporters may be left off the sequences shown. For part of these data: In cells and extracts the contact can be indirect.
